Source: US20260193623

Legend:
Test in all cases: activity assay
[1] = test system: T1, MG151-89; settings: primer extension gel; protein translated in vitro; protein details: Strep, RT-RNase H trim; label: 5'-FAM primer; DNA:RNA hybrid
T1 sequence (limits assumed): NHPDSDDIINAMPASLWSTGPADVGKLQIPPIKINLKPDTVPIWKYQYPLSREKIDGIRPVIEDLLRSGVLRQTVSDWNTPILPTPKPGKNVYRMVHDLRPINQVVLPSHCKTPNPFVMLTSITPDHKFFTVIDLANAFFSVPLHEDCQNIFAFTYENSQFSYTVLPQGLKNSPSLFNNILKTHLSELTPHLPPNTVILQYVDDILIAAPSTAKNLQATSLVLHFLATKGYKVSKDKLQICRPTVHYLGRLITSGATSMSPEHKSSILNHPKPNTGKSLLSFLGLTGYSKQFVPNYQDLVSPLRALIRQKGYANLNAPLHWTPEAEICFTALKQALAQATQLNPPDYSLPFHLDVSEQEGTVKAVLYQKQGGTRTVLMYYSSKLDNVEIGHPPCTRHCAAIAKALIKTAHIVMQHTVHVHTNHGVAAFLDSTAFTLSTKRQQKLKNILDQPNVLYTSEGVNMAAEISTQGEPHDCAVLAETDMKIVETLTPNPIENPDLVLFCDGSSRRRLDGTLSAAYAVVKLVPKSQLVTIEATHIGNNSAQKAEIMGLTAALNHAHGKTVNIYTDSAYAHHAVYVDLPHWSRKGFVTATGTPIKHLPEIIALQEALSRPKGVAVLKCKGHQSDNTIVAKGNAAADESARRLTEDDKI

[2] = test system: T2, MG153-10; settings: primer extension gel; 3 mM MgCl2, 37 C; protein translated in vitro; protein details: N-terminal Strep; label: 5'-FAM primer; DNA:RNA hybrid
T2 sequence (limits assumed): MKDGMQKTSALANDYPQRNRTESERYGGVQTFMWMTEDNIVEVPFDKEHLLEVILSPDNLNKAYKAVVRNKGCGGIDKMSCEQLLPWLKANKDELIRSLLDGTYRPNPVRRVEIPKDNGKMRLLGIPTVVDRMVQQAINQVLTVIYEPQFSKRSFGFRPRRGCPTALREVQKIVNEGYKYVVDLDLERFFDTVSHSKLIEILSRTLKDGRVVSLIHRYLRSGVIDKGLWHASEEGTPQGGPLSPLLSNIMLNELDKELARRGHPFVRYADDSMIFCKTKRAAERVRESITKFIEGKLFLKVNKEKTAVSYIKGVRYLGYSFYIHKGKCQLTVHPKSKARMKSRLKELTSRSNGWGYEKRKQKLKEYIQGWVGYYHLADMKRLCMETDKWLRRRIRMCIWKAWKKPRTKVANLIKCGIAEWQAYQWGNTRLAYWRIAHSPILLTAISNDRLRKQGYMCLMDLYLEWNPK

[3] = test system: T3, MG153-2; settings: primer extension gel; 3 mM MgCl2, 37 C; protein translated in vitro; protein details: N-terminal Strep; label: 5'-FAM primer; DNA:RNA hybrid
T3 sequence (limits assumed): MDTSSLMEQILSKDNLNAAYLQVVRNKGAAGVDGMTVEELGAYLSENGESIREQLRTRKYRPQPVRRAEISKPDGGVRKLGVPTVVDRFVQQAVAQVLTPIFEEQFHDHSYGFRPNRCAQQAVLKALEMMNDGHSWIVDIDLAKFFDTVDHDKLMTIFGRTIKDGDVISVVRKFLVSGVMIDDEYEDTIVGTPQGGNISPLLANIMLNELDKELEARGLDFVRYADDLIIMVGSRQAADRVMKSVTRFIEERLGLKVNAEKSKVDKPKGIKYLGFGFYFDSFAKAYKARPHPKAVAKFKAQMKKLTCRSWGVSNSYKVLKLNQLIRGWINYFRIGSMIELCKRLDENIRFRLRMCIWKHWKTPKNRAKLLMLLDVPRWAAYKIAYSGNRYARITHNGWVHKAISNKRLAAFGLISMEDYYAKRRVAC

[4] = test system: T4, MG153-41; settings: primer extension gel; 3 mM MgCl2, 37 C; protein translated in vitro; protein details: N-terminal Strep; label: 5'-FAM primer; DNA:RNA hybrid
T4 sequence (limits assumed): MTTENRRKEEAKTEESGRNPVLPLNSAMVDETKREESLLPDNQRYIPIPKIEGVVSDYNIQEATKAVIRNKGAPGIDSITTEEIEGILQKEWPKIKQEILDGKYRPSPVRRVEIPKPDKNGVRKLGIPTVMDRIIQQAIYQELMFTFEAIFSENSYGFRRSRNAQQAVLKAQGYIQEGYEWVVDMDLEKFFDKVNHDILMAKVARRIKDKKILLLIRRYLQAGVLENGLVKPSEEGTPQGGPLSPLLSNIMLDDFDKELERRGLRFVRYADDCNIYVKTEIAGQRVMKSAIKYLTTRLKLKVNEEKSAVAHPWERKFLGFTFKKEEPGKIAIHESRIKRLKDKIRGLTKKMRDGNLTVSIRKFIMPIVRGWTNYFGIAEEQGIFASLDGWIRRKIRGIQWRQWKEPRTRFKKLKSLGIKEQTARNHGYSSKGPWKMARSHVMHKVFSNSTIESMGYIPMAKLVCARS

[5] = test system: T5, MG153-57; settings: primer extension gel; 3 mM MgCl2, 37 C; protein translated in vitro; protein details: N-terminal Strep; label: 5'-FAM primer; DNA:RNA hybrid
T5 sequence (limits assumed): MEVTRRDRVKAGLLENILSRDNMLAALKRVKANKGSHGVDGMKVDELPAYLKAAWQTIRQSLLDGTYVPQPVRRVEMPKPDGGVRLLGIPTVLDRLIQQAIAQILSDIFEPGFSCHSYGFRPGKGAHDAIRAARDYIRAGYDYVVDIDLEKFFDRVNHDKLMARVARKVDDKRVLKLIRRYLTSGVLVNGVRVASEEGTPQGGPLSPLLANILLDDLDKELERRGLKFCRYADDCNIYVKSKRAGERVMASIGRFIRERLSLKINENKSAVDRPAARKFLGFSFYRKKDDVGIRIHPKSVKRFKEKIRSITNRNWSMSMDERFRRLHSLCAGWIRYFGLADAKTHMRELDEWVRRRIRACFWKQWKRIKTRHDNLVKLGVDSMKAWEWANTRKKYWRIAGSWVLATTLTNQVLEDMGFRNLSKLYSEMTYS

[6] = test system: T6, MG153-9; settings: primer extension gel; 3 mM MgCl2, 37 C; protein translated in vitro; protein details: N-terminal Strep; label: 5'-FAM primer; DNA:RNA hybrid
T6 sequence (limits assumed): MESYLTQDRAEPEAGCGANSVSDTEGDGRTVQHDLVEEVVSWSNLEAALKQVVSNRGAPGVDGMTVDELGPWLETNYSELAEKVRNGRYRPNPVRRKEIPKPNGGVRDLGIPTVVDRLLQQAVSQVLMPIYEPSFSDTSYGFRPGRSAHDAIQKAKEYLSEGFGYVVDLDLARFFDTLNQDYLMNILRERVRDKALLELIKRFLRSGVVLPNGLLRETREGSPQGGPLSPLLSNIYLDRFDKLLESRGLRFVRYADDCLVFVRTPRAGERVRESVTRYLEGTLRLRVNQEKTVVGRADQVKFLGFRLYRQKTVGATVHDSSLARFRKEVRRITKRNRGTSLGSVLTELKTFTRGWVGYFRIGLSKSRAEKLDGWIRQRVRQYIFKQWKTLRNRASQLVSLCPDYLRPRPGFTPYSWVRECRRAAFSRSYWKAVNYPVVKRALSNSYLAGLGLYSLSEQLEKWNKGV

Measured: activity on this sequence

GGCAAACCGCCTCTCCCCGCGCGTTGGCCGATTCATTAATGCAGCTGGCACGACAGGTTTCCCGACTGGAAAGGAGACCCGGGCAGTGAGCGCAACGGGTCTCCAATTTAAGCCAGCCCCGACACCCGCCAACACCCGCTGACGCGCCCTGACGGGCTTGTCTGCTCCCGGCATCCGCTTACAGACAAGCTGTGACCGTCTC / GAGACGGTCACAGCTTGTCTG [202-nt RNA template annealed to DNA primer]
active: all assays above

For at least one entry, the source does not settle the construct or the ends of the probe. Protein sequences can lack the tags named with them.
